PubChem BioAssay AID1259314 | Drosophila RNAi Screening Center, 2017

Test: 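Modifiers of manganese chloride toxicity in fly cells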 (primary screen)
Cells: Drosophila S2R+ cells
Knock-down reagent: long dsRNA against Drosophila genes
Duration: 5 days (4 days knock-down, then 1 day metal exposure)
Challenge: manganese chloride added to 15 mM for 24 hours
Detection: 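Luciferase ATP signal used as a proxy for viable cell number, reported as one averaged z-score per dsRNA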
Direction: mean ATP z-score: higher = more ATP than the plate average, more viable cells under manganese
Rule for the call: 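a mean ATP z-score past 1.5 in either direction is called active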
Meaning of the calls: active = strong ATP change, up or down; inactive = no strong ATP change
This is one part, drawn at random, of about 3,100 deposited reagents. Of all reagents, 289 (9.3%) got an active call. 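Active includes both higher and lower ATP than plate average; check the z-score sign for direction.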 A plus sign joins genes that one reagent is predicted to hit. No sequences are given here. Not given: the amount of reagent.

The first 10 records as a preview:
gene	PubChem SID	mean ATP z-score	activity call
CG44247 + veg (retired record)	SID104187506	-0.497	inactive
para	SID104198933	2.91	active
para	SID104200152	-0.235	inactive
PIG-M + CG42380 + CG42379 + 1 more	SID104183676	-0.155	inactive
PIG-M + CG42380 + CG42379 + 1 more	SID104184372	0.342	inactive
Nup93-1	SID104199136	1.25	inactive
Nup93-1	SID104217355	2.34	active
CG33181	SID104197763	0.152	inactive
CG33181	SID104208001	0.413	inactive
Spase22-23	SID104195649	-0.244	inactive

The listing, from the start:
gene	PubChem SID	mean ATP z-score	activity call
CG44247 + veg (retired record)	SID104187506	-0.497	inactive
para	SID104198933	2.91	active
para	SID104200152	-0.235	inactive
PIG-M + CG42380 + CG42379 + 1 more	SID104183676	-0.155	inactive
PIG-M + CG42380 + CG42379 + 1 more	SID104184372	0.342	inactive
Nup93-1	SID104199136	1.25	inactive
Nup93-1	SID104217355	2.34	active
CG33181	SID104197763	0.152	inactive
CG33181	SID104208001	0.413	inactive
Spase22-23	SID104195649	-0.244	inactive
PlexB	SID104196969	-0.253	inactive
SLC5A11	SID104182880	-0.961	inactive
SLC5A11	SID104217346	-1.1	inactive
CG10182	SID104193994	-0.463	inactive
CG1572	SID104199478	1.26	inactive
bib	SID104183288	-1.01	inactive
Lrp4	SID104199910	1.25	inactive
Vha100-1	SID104193940	0.502	inactive
Vha100-1	SID104217437	1.28	inactive
CG18281	SID104191534	0.979	inactive
CG18281	SID104217450	-0.418	inactive
PGRP-SA	SID104199212	-0.183	inactive
CG31792	SID104182396	0.13	inactive
CG31792	SID104217209	-0.189	inactive
Amnionless	SID104180109	0.14	inactive
PGRP-LA	SID104190119	-0.544	inactive
PGRP-LA	SID104190206	-0.493	inactive
MFS18	SID104180244	-0.199	inactive
MFS18	SID104217200	-0.529	inactive
Cad96Cb	SID104194035	0.668	inactive
Cad96Cb	SID104194457	-0.247	inactive
Cad96Cb	SID104207264	0.498	inactive
CG2736	SID104184106	0.994	inactive
CG2736	SID104217473	-0.487	inactive
inc	SID104197746	-0.294	inactive
inc	SID104207442	-2.11	active
bdg	SID104186928	-0.0693	inactive
AdipoR	SID104195559	-0.742	inactive
AdipoR	SID104217018	0.54	inactive
Vang	SID104187362	-0.383	inactive
CG12121	SID104197608	0.0118	inactive
CG12121	SID104217298	0.629	inactive
KdelR	SID104183145	1.4	inactive
Kap-alpha3	SID104196768	-0.398	inactive
Jwa	SID104181840	0.0817	inactive
Jwa	SID104205199	0.874	inactive
Tsp42Eh	SID104185982	0.576	inactive
Tsp42Eh	SID104217427	0.125	inactive
Snmp1	SID104195960	-0.295	inactive
CG31259	SID104194158	-0.14	inactive
CG31259	SID104217389	-0.392	inactive
Tmtc4	SID104195494	0.0613	inactive
Tmtc4	SID104217204	0.609	inactive
Tmc	SID104190148	-0.896	inactive
CG17928	SID104182436	0.113	inactive
CG17928	SID104217129	1.67	active
Alg7	SID104182625	-1.34	inactive
Alg7	SID104182626	0.986	inactive
Cnx99A	SID104203972	3.7	active
Ae2	SID104188789	1.09	inactive
Ae2	SID104190761	-0.123	inactive
Trpm	SID104186421	0.506	inactive
Trpm	SID104206141	0.145	inactive
Trpm	SID104207586	2.07	active
CG3652	SID104180416	1.97	active
CG3792	SID104182517	-0.767	inactive
Sema1b	SID104187342	-0.696	inactive
Sema1b	SID104206096	-0.368	inactive
fz	SID104191140	0.249	inactive
fz	SID104216730	-0.0837	inactive
Nup153	SID104199696	-1.99	active
CG34109	SID104182017	-0.389	inactive
CG34109	SID104205521	0.492	inactive
CG34109	SID104208648	-0.513	inactive
ACXA	SID104203884	1	inactive
ACXA	SID104217124	0.0793	inactive
CG11069	SID104194081	-0.574	inactive
ppk11	SID104182529	-0.696	inactive
Fs(2)Ket	SID104183120	0.252	inactive
Fs(2)Ket	SID104202737	-2.69	active
Elk	SID104187400	2.06	active
Elk	SID104217054	0.492	inactive
CG30048	SID104201741	-0.0991	inactive
CG30048	SID104217461	-0.588	inactive
Abcd3	SID104199280	0.196	inactive
Abcd3	SID104207885	0.035	inactive
CG15211	SID104199449	0.508	inactive
CG15211	SID104217343	-0.334	inactive
Grl65a	SID104188629	0.184	inactive
Grl65a	SID104204530	-0.838	inactive
CG7536	SID104199842	0.0494	inactive
CG7536	SID104217171	-0.46	inactive
Abca3	SID104200338	-0.169	inactive
Or47a	SID104187283	-0.00348	inactive
SiaT	SID104184286	-0.394	inactive
SiaT	SID104217240	-0.699	inactive
Spg7	SID104198261	-1.01	inactive
Spg7	SID104217175	-0.212	inactive
drl	SID104183315	0.73	inactive
drl	SID104207108	0.85	inactive
drl	SID104214602	-0.259	inactive
JTBR	SID104188459	-0.322	inactive
CG3285	SID104180381	-0.655	inactive
mAChR-A	SID104206806	0.369	inactive
CG8860	SID104187083	-0.213	inactive
CG8860	SID104203832	2.66	active
Octbeta1R	SID104195926	0.137	inactive
Octbeta1R	SID104208574	-0.352	inactive
CG33012	SID104186079	-1.21	inactive
CG33012	SID104186080	-0.0381	inactive
NijC	SID104194643	0.317	inactive
NijC	SID104207598	1.58	active
GluRIIC	SID104180434	0.342	inactive
Gr64a	SID104201388	-0.739	inactive
Gr64a	SID104217313	2.82	active
Sras	SID104191079	-1.38	inactive
Gr28a	SID104182082	-0.0937	inactive
Hk	SID104203531	2.16	active
Hk	SID104216704	0.141	inactive
robo2	SID104180169	1.66	active
robo2	SID104180478	-1.03	inactive
CG3649	SID104184192	0.0545	inactive
CG3649	SID104207272	-0.327	inactive
CG14744	SID104186272	-0.417	inactive
CG7990	SID104199088	0.545	inactive
CG7990	SID104202552	-0.624	inactive
CG7990	SID104205124	0.00142	inactive
Gr21a	SID104180158	1.42	inactive
Gr21a	SID104207127	-0.00492	inactive
SIFaR	SID104193259	-0.349	inactive
SIFaR	SID104194058	0.258	inactive
prom	SID104201658	0.453	inactive
prom	SID104205372	0.86	inactive
prom	SID104206101	0.178	inactive
prom	SID104217224	1.17	inactive
Or92a	SID104196563	0.639	inactive
LBR	SID104184090	-0.556	inactive
LBR	SID104208006	-1.74	active
Nup107	SID104181791	-1.09	inactive
CG9864	SID104187138	-0.461	inactive
CG9864	SID104207309	0.308	inactive
